At least one compound was matched to its structure with a doubt left.
Test system: EXPRES 01 cells
Assay: Differentiation of embryoid body like structures
Assay type: cell-based, human
Details: passage 27, DMEM-F12+2% FBS+1 micro molar retinoic acid

CC1=C(/C=C/C(C)=C/C=C/C(C)=C/C(=O)O)C(C)(C)CCC1 [retinoic acid]
expression of ectoderm markers, such as NeuroD: induced expression of ectoderm markers
